# Earlier results, collected in patent US6696084B2 (RTP Pharma Inc., priority 2000, dated 2004).
# Conditions: oral administration with or without food
smiles,measurement,value
CC(C)c1c(C(=O)Nc2ccccc2)c(-c2ccccc2)c(-c2ccc(F)cc2)n1CC[C@@H](O)C[C@@H](O)CC(=O)O [Atorvastatin],food effect on absorption / uptake,Food decreases the rate and extent of drug absorption
